At least one compound was matched to its structure with a doubt left. Some results were stated once for a whole list of compounds, not compound by compound.
Columns and labels:
[1] = test system: HCC cell lines, Mahlavu, PLC5, HepG2, and Huh7; assay: MTT cell viability test in HCC cell lines; details: 72 hours
Experimental: The HCC cell lines, Mahlavu, PLC5, HepG2, and Huh7, were cultured in Dulbecco's Modified Eagle Medium (DMEM; Seromed, Berlin, Germany) supplemented with 10% heat-inactivated fetal bovine serum, 100 μg/ml streptomycin, 100 μg/ml penicillin, and 2 mM L-glutamine in a humidified atmosphere containing 5% CO2 at 37° C. […] The cells were exposed to different concentrations of the small molecules for 72 hours. Control cells were incubated in the absence of small molecules. Afterwards, the cells were incubated with medium containing MTT for 2 hours. […] For the clonogenic assay, Huh7 cells were seeded out in appropriate dilutions in a 6-well plate and treated with selected small molecules at various concentrations for 15 days. Colonies were fixed with glutaraldehyde (6.0% v/v), stained with crystal violet (0.5% w/v), and counted.

[2] = test system: hepatocellular carcinoma or HCC; details: Table 2-3; labels (2) and (3), PubMed references; cited from earlier work
Huh7 cells = assay: Clonogenic assay; format: cell-based; details: Table 3-1, 15 days, colony number at 10 μM

C=CCNC1=C2C[C@@H](C)C[C@H](OC)[C@H](O)[C@@H](C)/C=C(\C)[C@H](OC(N)=O)[C@@H](OC)/C=C\C=C(/C)C(=O)NC(=CC1=O)C2=O [tanespimycin]
viability of HCC cell lines reduced ([1]; co-incubation with various concentrations): more than 50%

CC(/C=C/C(=O)NO)=C\[C@@H](C)C(=O)c1ccc(N(C)C)cc1 [trichostatin A]
IC50 ([1]; HCC cell lines): < 10 µM

O=c1cc(N2CCOCC2)oc2c(-c3ccccc3)cccc12 [LY-294002]
drug efficacy label [2]: LY-294002 (2)

C#C[C@]1(O)CC[C@H]2[C@@H]3CCC4=CC(=O)CC[C@@H]4[C@H]3CC[C@@]21CC [levonorgestrel]
drug efficacy label [2]: levonorgestrel (3)
Clonogenic assay (Huh7 cells): Ineffective

From US20110287953A1, “METHOD FOR DISCOVERING POTENTIAL DRUGS” (priority 2010, published 2011)
